Measurements reported in PubChem BioAssay AID1259308 (NCATS, 2017)
Screen: 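Genes whose loss raises luciferase production in HEK293 cells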 (primary screen). Cells: human HEK293 embryonic kidney cells stably expressing firefly luciferase (HEK-CMV-Luc2-Hygro). Knock-down reagent: single siRNA against human genes, 0.8 pmol siRNA per well. Timing: 72 h. Measured: 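Reporter luminescence and viable-cell signal on separate replicate plates, given as percent of non-targeting control and median/MAD z-scores, plus per-cell luciferase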. Reading the numbers: total luciferase, z-score and total luciferase, % of control: higher = more reporter protein produced; luciferase per cell, z-score: higher = more reporter output per viable cell; viable cells, % of control: higher = more viable cells. Rule for the call: 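An siRNA counts as active if its total luciferase robust z-score exceeds 3; genes with two or more such siRNAs out of three were retested with fresh siRNAs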. Meaning of the calls: active = raised luciferase; inactive = no rise.
Shown is a random part of about 59,000 reagents tested. In the full data, about 1,510 (2.6%) were called active. 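Calls use total luciferase alone and ignore viability, so some active siRNAs may act by altering cell number.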 The numbers tell different reagents against one gene apart. No sequences are given here.

gene | reagent no. | total luciferase, z-score | total luciferase, % of control | luciferase per cell, z-score | viable cells, % of control | Call
FBXO45 | 1 | -0.128 | 79.3 | -0.832 | 110 | inactive
FBXO45 | 2 | 0.483 | 91.5 | 0.653 | 86.1 | inactive
FBXO45 | 3 | -1.06 | 60.8 | -0.94 | 87.1 | inactive
GUSBP14 | 1 | -1.51 | 51.9 | -0.883 | 73.2 | inactive
GUSBP14 | 2 | 0.857 | 98.9 | 1.1 | 82.8 | inactive
GUSBP14 | 3 | -1.27 | 56.6 | -1.66 | 98 | inactive
ABCA8 | 1 | 0.153 | 84.9 | 0.615 | 80.7 | inactive
ABCA8 | 2 | 0.103 | 83.9 | -0.362 | 103 | inactive
ABCA8 | 3 | 1.45 | 111 | 0.825 | 99.6 | inactive
NKX2-5 | 1 | -0.535 | 71.2 | -0.323 | 86.7 | inactive
NKX2-5 | 2 | 1.09 | 104 | 0.725 | 95.7 | inactive
NKX2-5 | 3 | -0.228 | 77.3 | -0.73 | 105 | inactive
TFAP2E | 1 | 1.03 | 102 | 1.62 | 74.7 | inactive
TFAP2E | 2 | 1.03 | 102 | 0.479 | 101 | inactive
TFAP2E | 3 | -1.39 | 54.1 | 0.316 | 55.7 | inactive
SERPINA1 | 1 | -0.678 | 68.4 | -0.385 | 84.6 | inactive
SERPINA1 | 2 | 1.22 | 106 | 1.01 | 90.9 | inactive
SERPINA1 | 3 | -0.617 | 69.6 | -0.837 | 97 | inactive
SEPTIN7P2 | 1 | 0.291 | 87.7 | 0.485 | 86.2 | inactive
SEPTIN7P2 | 2 | -0.763 | 66.7 | -0.932 | 95.3 | inactive
SEPTIN7P2 | 3 | -0.00512 | 81.8 | -0.434 | 102 | inactive
MRGPRF | 1 | 0.496 | 91.7 | 1.26 | 73.6 | inactive
MRGPRF | 2 | 4.61 | 174 | 4.75 | 55.5 | active
MRGPRF | 3 | 0.932 | 100 | 0.513 | 98 | inactive
LCORL | 1 | 3.5 | 152 | 3.11 | 74.6 | active
LCORL | 2 | -0.324 | 75.4 | 0.763 | 69 | inactive
LCORL | 3 | -1.53 | 51.5 | -1.91 | 95.2 | inactive
PCOLCE2 | 1 | 4.49 | 171 | 2.4 | 102 | active
PCOLCE2 | 2 | -0.109 | 79.7 | -0.402 | 99 | inactive
PCOLCE2 | 3 | 1.4 | 110 | 1.1 | 91.6 | inactive
TBC1D20 | 1 | -0.79 | 66.2 | -1.16 | 100 | inactive
TBC1D20 | 2 | 0.86 | 99 | 0.638 | 93.5 | inactive
TBC1D20 | 3 | -0.918 | 63.6 | -1.19 | 97.2 | inactive
SUPT20HL2 | 1 | 1.84 | 118 | 3.26 | 56.1 | inactive
SUPT20HL2 | 2 | -2.15 | 39.1 | -1.95 | 73 | inactive
SUPT20HL2 | 3 | -0.52 | 71.5 | -0.419 | 89.3 | inactive
ZFX | 1 | 0.116 | 84.2 | 0.184 | 89.6 | inactive
ZFX | 2 | 0.699 | 95.8 | 0.517 | 93.4 | inactive
ZFX | 3 | -0.24 | 77.1 | -0.278 | 92.7 | inactive
TBC1D3P2 | 1 | -0.181 | 78.3 | 0.172 | 83.6 | inactive
TBC1D3P2 | 2 | -0.496 | 72 | 0.0672 | 79.1 | inactive
TBC1D3P2 | 3 | 0.0589 | 83.1 | 0.1 | 90.4 | inactive
NXPE1 | 1 | 1.18 | 105 | 0.886 | 93.3 | inactive
NXPE1 | 2 | -1.14 | 59.3 | -0.446 | 74.5 | inactive
NXPE1 | 3 | 3.37 | 149 | 4.05 | 57.3 | active
DLST | 1 | -1.24 | 57.2 | -0.386 | 70.7 | inactive
DLST | 2 | 0.173 | 85.3 | 1.31 | 67.5 | inactive
DLST | 3 | -1.29 | 56.2 | -1.4 | 90.8 | inactive
SLC41A1 | 1 | 3 | 142 | 1.6 | 104 | active
SLC41A1 | 2 | 0.28 | 87.5 | 0.562 | 84.3 | inactive
SLC41A1 | 3 | -0.137 | 79.2 | 0.0305 | 87.7 | inactive
CDK10 | 1 | -0.298 | 76 | -0.0563 | 86.2 | inactive
CDK10 | 2 | 0.695 | 95.7 | 0.807 | 86.5 | inactive
CDK10 | 3 | 0.0219 | 82.3 | -0.0354 | 92.9 | inactive
SLC6A3 | 1 | -1.69 | 48.3 | -1.42 | 78.5 | inactive
SLC6A3 | 2 | -1.32 | 55.7 | -1.15 | 84.2 | inactive
SLC6A3 | 3 | 1.47 | 111 | 0.759 | 102 | inactive
PAK6 | 1 | 0.655 | 94.9 | 0.97 | 82.1 | inactive
PAK6 | 2 | 0.83 | 98.4 | 1.6 | 72.2 | inactive
PAK6 | 3 | 1.99 | 121 | 3.23 | 58.1 | inactive
RPL13A | 1 | 2.17 | 125 | 1.74 | 88.4 | inactive
RPL13A | 2 | -2.06 | 40.9 | -0.673 | 54.5 | inactive
RPL13A | 3 | -1.2 | 58 | 0.0383 | 64.1 | inactive
STAC | 1 | -0.596 | 70 | -0.299 | 84.7 | inactive
STAC | 2 | -0.653 | 68.9 | 2.01 | 45.4 | inactive
STAC | 3 | -0.166 | 78.6 | -0.413 | 97.9 | inactive
NAA80 | 1 | -0.985 | 62.3 | -0.967 | 89.8 | inactive
NAA80 | 2 | 1.81 | 118 | 1.24 | 94.9 | inactive
NAA80 | 3 | 0.19 | 85.7 | -0.203 | 101 | inactive
ABCB8 | 1 | 4.4 | 169 | 4.53 | 57.5 | active
ABCB8 | 2 | 3.54 | 152 | 1.88 | 104 | active
ABCB8 | 3 | 1.7 | 116 | 0.988 | 99.6 | inactive
INTS4 | 1 | -0.441 | 73.1 | 0.46 | 72.4 | inactive
INTS4 | 2 | 2.65 | 135 | 2.3 | 82.1 | inactive
INTS4 | 3 | 2.26 | 127 | 1.97 | 84.4 | inactive

Not a retest: 8 of the entries above.
gene | reagent no. | total luciferase, z-score | total luciferase, % of control | luciferase per cell, z-score | viable cells, % of control | Call
SLC6A3 | 1 | -1.69 | 48.3 | -1.42 | 78.5 | inactive
SLC6A3 | 2 | -1.32 | 55.7 | -1.15 | 84.2 | inactive
SLC6A3 | 3 | 1.47 | 111 | 0.759 | 102 | inactive
PAK6 | 1 | 0.655 | 94.9 | 0.97 | 82.1 | inactive
PAK6 | 2 | 0.83 | 98.4 | 1.6 | 72.2 | inactive
PAK6 | 3 | 1.99 | 121 | 3.23 | 58.1 | inactive
RPL13A | 1 | 2.17 | 125 | 1.74 | 88.4 | inactive
RPL13A | 2 | -2.06 | 40.9 | -0.673 | 54.5 | inactive
